The values that follow come from publication PMC9332868.

Amino acid sequences for entries named in this document (tags omitted).
UniProt P27361: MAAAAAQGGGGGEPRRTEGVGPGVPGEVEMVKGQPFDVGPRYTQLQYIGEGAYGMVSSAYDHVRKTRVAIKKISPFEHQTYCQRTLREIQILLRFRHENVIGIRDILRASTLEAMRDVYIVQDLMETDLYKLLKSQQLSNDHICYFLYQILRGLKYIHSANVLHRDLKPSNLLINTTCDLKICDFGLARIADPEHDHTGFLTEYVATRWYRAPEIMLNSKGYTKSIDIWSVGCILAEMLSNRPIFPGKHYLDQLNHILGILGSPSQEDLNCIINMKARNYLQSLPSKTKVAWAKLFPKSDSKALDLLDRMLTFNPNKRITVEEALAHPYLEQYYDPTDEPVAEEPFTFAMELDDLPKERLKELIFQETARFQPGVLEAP

This assay has as its target MEK2 (human (endogenous in HGC27 and AGS)) (UniProt P36507). The assay is described as follows: co-IP; MEK1 or MEK2 immunoprecipitated from HGC27 and AGS cells, with or without tegaserod maleate treatment; ERK1/2 in the precipitate detected by Western blotting with anti-p-ERK1/2 T202/Y204. (In general: A western blot detects proteins with antibodies after separation by electrophoresis.)

These are yes or no findings as the source states them, for the method shown. Binding seen in cells or lysates may run through a third protein. Some binding calls cover weakened binding; strength is not graded here.

On to ERK1 (from UniProt P27361 1-379), for which the binding entry is listed as “binds”.
